No constants are given. Whether binding was seen depends on the method and setting. Some results given as binding are weak or reduced against the parent protein; the word gives no strength. Where a sequence is shown, tags or fusion partners need not be part of it.
T1: PSEUDO-RESPONSE REGULATOR 5 (PRR5), yeast two-hybrid fusion (Arabidopsis thaliana) (UniProt Q6LA42)
T1 sequence: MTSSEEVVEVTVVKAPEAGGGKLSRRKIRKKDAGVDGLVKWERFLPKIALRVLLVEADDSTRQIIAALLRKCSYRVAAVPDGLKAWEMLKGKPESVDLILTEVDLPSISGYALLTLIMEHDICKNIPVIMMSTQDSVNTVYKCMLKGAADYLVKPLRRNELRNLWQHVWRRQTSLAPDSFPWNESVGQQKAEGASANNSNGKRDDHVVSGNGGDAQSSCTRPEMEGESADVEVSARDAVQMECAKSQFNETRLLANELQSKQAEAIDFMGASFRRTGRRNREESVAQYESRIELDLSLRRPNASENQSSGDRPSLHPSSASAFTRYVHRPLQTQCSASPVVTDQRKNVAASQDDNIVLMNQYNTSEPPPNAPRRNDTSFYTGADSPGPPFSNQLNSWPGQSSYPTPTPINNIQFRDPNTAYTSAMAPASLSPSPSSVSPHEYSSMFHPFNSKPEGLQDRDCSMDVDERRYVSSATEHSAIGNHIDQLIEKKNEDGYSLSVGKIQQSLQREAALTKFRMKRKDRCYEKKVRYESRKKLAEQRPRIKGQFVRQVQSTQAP

T2: PRR5 truncation containing the CCT domain (Arabidopsis thaliana) (UniProt Q6LA42)
T2 sequence: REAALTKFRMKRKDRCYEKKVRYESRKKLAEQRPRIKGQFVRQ


Experiments:
[1] = molecular target: T1, PSEUDO-RESPONSE REGULATOR 5 (PRR5), yeast two-hybrid fusion (Arabidopsis thaliana); test: two-hybrid; pGADT7 and pGBKT7 constructs co-transformed into yeast AH109; growth on -LT and on -LTH with various concentrations of 3-AT
[2] = molecular target: T2, PRR5 truncation containing the CCT domain (Arabidopsis thaliana); test: as above

Row | binding [1] | binding [2] | Binder
1 | binds |  | BBX19, yeast two-hybrid fusion (protein, UniProt C0SVM5 1-183) MRILCDACENAAAIIFCAADEAALCRPCDEKVHMCNKLASRHVRVGLAEPSNAPCCDICENAPAFFYCEIDGSSLCLQCDMVVHVGGKRTHGRFLLLRQRIEFPGDKPKENNTRDNLQNQRVSTNGNGEANGKIDDEMIDLNANPQRVHEPSSNNNGIDVNNENNHEPAGLVPVGPFKRESEK
2 | binds | no binding | B-BOX 18 (BBX18), yeast two-hybrid fusion (protein, UniProt Q9SJU5 1-172) MRILCDACESAAAIVFCAADEAALCCSCDEKVHKCNKLASRHLRVGLADPSNAPSCDICENAPAFFYCEIDGSSLCLQCDMVVHVGGKRTHRRFLLLRQRIEFPGDKPNHADQLGLRCQKASSGRGQESNGNGDHDHNMIDLNSNPQRVHEPGSHNQEEGIDVNNANNHEHE

— publication PMC8651621
